Reference: PMC3254608, “Inscuteable Regulates the Pins-Mud Spindle Orientation Pathway” (PLoS ONE, 2012)
No constants are given. Whether binding was seen depends on the method and setting. For part of these data: In cells and extracts the contact can be indirect. Some results given as binding are weak or reduced against the parent protein; the word gives no strength. For part of these data: Tags and fused reporters may be left off the sequences shown. Values belong to the binder of their own block, whether it stands above or below them.

Tests used:
[1] = biological target: T1, Inscuteable (Insc), endogenous (Drosophila (endogenous in L3 larval brains)) (UniProt Q24367); test: co-IP; endogenous proteins from wild-type L3 larval brain extracts; antibodies on protein G sepharose; 50 mM HEPES pH 7.5/150 mM NaCl/1 mM DTT/0.1% Triton X-100; western blot
T1 sequence: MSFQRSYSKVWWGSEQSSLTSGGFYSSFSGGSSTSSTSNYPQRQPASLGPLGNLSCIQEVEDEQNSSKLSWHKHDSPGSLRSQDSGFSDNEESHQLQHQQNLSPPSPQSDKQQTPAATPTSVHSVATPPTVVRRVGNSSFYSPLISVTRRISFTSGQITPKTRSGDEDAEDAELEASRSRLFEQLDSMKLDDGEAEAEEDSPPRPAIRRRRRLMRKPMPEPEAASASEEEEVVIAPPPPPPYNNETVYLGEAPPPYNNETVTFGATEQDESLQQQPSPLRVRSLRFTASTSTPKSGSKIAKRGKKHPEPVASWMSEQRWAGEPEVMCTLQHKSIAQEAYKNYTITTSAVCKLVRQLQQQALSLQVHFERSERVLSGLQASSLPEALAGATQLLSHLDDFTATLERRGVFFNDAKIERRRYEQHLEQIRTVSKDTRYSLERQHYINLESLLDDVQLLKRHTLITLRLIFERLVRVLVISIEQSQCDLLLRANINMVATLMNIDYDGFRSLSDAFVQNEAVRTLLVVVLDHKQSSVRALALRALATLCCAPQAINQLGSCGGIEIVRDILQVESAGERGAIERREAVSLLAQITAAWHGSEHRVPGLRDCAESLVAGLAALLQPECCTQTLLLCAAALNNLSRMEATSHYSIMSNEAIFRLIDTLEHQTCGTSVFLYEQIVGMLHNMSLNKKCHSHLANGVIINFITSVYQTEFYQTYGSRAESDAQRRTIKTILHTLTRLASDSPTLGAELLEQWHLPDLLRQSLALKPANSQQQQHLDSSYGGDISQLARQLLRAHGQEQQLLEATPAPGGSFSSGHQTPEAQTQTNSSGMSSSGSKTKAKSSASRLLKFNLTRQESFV

[2] = biological target: T2, GST-fusion of the Pins GoLoco region (residues 372-658) (Drosophila) (UniProt Q9VB22); test: pull-down; GST-Pins constructs adsorbed on glutathione agarose, purified MBP-Insc added; 10 mM Hepes/100 mM NaCl/1 mM DTT, 50 µl, room temperature, 15 min; gel electrophoresis; both purified
T2 sequence: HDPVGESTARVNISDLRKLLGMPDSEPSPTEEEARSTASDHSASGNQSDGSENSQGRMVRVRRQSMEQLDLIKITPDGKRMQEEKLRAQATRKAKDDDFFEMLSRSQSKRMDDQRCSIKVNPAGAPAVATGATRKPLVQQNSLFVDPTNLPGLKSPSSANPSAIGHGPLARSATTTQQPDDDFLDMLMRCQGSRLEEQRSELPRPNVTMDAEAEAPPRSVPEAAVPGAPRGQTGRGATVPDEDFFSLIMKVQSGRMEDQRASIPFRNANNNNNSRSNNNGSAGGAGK

[3] = biological target: T3, Partner of Inscuteable (Pins), endogenous (Drosophila (endogenous in L3 larval brains)) (UniProt Q9VB22); test: co-IP; endogenous proteins from wild-type L3 larval brain extracts; antibodies on protein G sepharose; 50 mM HEPES pH 7.5/150 mM NaCl/1 mM DTT/0.1% Triton X-100; western blot
T3 sequence: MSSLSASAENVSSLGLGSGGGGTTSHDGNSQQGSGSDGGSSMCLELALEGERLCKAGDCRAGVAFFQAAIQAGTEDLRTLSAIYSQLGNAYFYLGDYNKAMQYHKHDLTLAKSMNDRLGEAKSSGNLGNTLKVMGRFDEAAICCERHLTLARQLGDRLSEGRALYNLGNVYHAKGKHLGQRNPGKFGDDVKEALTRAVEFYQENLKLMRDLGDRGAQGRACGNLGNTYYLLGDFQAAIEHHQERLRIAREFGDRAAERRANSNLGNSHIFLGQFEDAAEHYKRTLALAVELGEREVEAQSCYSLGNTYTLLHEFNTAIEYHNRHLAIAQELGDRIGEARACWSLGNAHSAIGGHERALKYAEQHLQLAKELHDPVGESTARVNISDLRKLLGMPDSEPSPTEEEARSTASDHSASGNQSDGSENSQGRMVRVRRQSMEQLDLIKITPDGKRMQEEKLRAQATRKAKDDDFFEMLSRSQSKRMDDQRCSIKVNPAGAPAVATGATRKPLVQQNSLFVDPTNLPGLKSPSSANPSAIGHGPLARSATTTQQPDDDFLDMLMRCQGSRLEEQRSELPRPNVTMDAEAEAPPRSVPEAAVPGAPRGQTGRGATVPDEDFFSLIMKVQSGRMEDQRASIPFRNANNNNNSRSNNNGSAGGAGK

binding [1]: binds
B1: Partner of Inscuteable (Pins), endogenous (protein, UniProt Q9VB22 1-658)
chain: MSSLSASAENVSSLGLGSGGGGTTSHDGNSQQGSGSDGGSSMCLELALEGERLCKAGDCRAGVAFFQAAIQAGTEDLRTLSAIYSQLGNAYFYLGDYNKAMQYHKHDLTLAKSMNDRLGEAKSSGNLGNTLKVMGRFDEAAICCERHLTLARQLGDRLSEGRALYNLGNVYHAKGKHLGQRNPGKFGDDVKEALTRAVEFYQENLKLMRDLGDRGAQGRACGNLGNTYYLLGDFQAAIEHHQERLRIAREFGDRAAERRANSNLGNSHIFLGQFEDAAEHYKRTLALAVELGEREVEAQSCYSLGNTYTLLHEFNTAIEYHNRHLAIAQELGDRIGEARACWSLGNAHSAIGGHERALKYAEQHLQLAKELHDPVGESTARVNISDLRKLLGMPDSEPSPTEEEARSTASDHSASGNQSDGSENSQGRMVRVRRQSMEQLDLIKITPDGKRMQEEKLRAQATRKAKDDDFFEMLSRSQSKRMDDQRCSIKVNPAGAPAVATGATRKPLVQQNSLFVDPTNLPGLKSPSSANPSAIGHGPLARSATTTQQPDDDFLDMLMRCQGSRLEEQRSELPRPNVTMDAEAEAPPRSVPEAAVPGAPRGQTGRGATVPDEDFFSLIMKVQSGRMEDQRASIPFRNANNNNNSRSNNNGSAGGAGK

binding [2]: no binding
B2: MBP-fusion of the central Ankyrin-repeat containing domain of Inscuteable (residues 252-600) (domain or fragment, Drosophila, UniProt Q24367 252-600, looked up)
chain: APPPYNNETVTFGATEQDESLQQQPSPLRVRSLRFTASTSTPKSGSKIAKRGKKHPEPVASWMSEQRWAGEPEVMCTLQHKSIAQEAYKNYTITTSAVCKLVRQLQQQALSLQVHFERSERVLSGLQASSLPEALAGATQLLSHLDDFTATLERRGVFFNDAKIERRRYEQHLEQIRTVSKDTRYSLERQHYINLESLLDDVQLLKRHTLITLRLIFERLVRVLVISIEQSQCDLLLRANINMVATLMNIDYDGFRSLSDAFVQNEAVRTLLVVVLDHKQSSVRALALRALATLCCAPQAINQLGSCGGIEIVRDILQVESAGERGAIERREAVSLLAQITAAWHGSEH
notes: Inscuteable (Insc), Drosophila, residues 252-600, including the central Ankyrin-repeat containing region; pMAL-c2 based vector; also called MBP-Insc; source: E. coli BL21(DE3), purified (amylose resin)

binding [3]: binds
B3: Inscuteable (Insc), endogenous (protein, UniProt Q24367 1-859)
chain: MSFQRSYSKVWWGSEQSSLTSGGFYSSFSGGSSTSSTSNYPQRQPASLGPLGNLSCIQEVEDEQNSSKLSWHKHDSPGSLRSQDSGFSDNEESHQLQHQQNLSPPSPQSDKQQTPAATPTSVHSVATPPTVVRRVGNSSFYSPLISVTRRISFTSGQITPKTRSGDEDAEDAELEASRSRLFEQLDSMKLDDGEAEAEEDSPPRPAIRRRRRLMRKPMPEPEAASASEEEEVVIAPPPPPPYNNETVYLGEAPPPYNNETVTFGATEQDESLQQQPSPLRVRSLRFTASTSTPKSGSKIAKRGKKHPEPVASWMSEQRWAGEPEVMCTLQHKSIAQEAYKNYTITTSAVCKLVRQLQQQALSLQVHFERSERVLSGLQASSLPEALAGATQLLSHLDDFTATLERRGVFFNDAKIERRRYEQHLEQIRTVSKDTRYSLERQHYINLESLLDDVQLLKRHTLITLRLIFERLVRVLVISIEQSQCDLLLRANINMVATLMNIDYDGFRSLSDAFVQNEAVRTLLVVVLDHKQSSVRALALRALATLCCAPQAINQLGSCGGIEIVRDILQVESAGERGAIERREAVSLLAQITAAWHGSEHRVPGLRDCAESLVAGLAALLQPECCTQTLLLCAAALNNLSRMEATSHYSIMSNEAIFRLIDTLEHQTCGTSVFLYEQIVGMLHNMSLNKKCHSHLANGVIINFITSVYQTEFYQTYGSRAESDAQRRTIKTILHTLTRLASDSPTLGAELLEQWHLPDLLRQSLALKPANSQQQQHLDSSYGGDISQLARQLLRAHGQEQQLLEATPAPGGSFSSGHQTPEAQTQTNSSGMSSSGSKTKAKSSASRLLKFNLTRQESFV
